From the supplement of paper PMC10849652
The list shows a part of the results.

Sequences of proteins named here, by UniProt entry; tags and fusion partners are left off. A change or cut given only in a name is not applied to a line headed by its entry.
UniProt P56589: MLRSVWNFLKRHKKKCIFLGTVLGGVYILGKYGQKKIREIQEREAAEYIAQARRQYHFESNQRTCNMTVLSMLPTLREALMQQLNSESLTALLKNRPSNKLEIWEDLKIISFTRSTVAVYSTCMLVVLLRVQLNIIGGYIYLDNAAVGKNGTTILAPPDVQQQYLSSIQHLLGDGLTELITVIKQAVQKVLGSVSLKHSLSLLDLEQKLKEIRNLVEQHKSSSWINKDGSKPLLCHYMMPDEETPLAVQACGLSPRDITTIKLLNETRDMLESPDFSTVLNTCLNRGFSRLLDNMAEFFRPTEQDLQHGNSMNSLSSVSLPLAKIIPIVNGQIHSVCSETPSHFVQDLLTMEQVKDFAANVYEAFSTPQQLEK
UniProt P60673: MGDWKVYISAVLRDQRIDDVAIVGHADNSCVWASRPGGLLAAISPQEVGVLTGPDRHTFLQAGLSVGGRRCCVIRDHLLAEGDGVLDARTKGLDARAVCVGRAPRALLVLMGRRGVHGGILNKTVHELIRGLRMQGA
UniProt Q8N165: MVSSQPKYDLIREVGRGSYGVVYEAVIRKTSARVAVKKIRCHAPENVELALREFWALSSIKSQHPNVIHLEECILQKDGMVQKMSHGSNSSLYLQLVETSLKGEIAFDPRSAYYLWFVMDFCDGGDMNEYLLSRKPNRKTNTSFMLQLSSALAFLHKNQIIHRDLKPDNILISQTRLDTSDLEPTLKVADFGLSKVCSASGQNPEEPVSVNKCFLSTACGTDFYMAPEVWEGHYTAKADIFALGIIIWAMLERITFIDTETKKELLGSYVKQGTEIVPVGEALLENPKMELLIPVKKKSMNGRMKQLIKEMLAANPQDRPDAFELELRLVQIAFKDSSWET
UniProt Q9BSM1: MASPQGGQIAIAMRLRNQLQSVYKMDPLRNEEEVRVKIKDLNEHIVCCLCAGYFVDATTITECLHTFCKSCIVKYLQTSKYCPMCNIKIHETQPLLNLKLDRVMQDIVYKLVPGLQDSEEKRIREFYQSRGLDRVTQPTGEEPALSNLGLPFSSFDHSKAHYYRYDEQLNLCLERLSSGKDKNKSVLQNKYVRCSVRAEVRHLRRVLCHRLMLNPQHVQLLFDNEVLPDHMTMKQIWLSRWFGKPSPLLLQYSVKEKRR
UniProt Q15118, whole entry, looked up: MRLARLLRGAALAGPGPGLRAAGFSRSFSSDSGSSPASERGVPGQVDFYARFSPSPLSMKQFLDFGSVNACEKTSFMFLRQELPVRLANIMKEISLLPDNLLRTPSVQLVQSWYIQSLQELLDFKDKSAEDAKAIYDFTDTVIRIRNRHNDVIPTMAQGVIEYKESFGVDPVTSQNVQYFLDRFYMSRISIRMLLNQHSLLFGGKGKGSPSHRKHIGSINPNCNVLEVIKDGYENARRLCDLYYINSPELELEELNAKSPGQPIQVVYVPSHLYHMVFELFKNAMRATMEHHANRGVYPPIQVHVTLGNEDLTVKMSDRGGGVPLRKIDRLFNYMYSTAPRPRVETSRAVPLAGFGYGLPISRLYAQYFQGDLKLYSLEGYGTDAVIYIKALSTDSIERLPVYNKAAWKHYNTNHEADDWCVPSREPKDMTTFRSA
UniProt Q15004: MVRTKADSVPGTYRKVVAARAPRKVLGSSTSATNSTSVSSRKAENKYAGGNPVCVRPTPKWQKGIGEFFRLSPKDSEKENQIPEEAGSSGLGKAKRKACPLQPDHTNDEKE
UniProt Q3KNV8: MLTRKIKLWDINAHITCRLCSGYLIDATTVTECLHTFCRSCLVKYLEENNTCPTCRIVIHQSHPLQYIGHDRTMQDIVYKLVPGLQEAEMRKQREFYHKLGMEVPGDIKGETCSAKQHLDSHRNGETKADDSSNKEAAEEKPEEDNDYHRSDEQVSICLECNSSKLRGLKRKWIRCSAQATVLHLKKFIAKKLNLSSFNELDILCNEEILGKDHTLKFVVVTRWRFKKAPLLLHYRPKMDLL
UniProt O43933: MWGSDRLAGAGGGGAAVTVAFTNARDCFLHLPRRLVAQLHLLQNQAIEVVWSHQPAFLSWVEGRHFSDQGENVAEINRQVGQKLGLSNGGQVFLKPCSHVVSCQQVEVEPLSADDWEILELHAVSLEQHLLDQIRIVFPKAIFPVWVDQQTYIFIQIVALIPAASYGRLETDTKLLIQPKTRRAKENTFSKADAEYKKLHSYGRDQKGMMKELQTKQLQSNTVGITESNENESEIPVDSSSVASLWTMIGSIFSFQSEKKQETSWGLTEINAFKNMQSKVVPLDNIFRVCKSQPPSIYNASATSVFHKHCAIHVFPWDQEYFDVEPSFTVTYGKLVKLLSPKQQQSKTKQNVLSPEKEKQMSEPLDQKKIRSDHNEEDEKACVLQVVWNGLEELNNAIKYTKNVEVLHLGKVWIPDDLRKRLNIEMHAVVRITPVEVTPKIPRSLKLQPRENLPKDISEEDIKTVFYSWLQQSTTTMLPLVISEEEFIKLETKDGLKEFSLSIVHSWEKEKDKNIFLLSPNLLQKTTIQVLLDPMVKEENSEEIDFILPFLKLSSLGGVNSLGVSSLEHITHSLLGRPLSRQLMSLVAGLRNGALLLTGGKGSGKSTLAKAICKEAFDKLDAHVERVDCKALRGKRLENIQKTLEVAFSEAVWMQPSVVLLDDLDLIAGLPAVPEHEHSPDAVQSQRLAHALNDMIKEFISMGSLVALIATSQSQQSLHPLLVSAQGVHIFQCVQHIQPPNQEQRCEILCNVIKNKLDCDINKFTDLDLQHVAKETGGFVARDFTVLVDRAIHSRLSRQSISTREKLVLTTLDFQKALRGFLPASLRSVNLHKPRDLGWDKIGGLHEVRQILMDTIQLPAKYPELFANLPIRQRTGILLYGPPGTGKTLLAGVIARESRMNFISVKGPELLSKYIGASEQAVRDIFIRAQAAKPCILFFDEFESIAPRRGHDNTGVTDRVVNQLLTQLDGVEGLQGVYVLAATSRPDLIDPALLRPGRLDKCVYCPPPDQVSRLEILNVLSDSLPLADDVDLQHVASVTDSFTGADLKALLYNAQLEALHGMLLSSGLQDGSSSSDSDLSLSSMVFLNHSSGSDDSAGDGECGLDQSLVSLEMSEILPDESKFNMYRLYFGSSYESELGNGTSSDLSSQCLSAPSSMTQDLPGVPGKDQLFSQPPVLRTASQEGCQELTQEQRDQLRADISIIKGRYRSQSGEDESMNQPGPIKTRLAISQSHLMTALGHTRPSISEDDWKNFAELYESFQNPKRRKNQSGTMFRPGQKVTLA
UniProt Q15154: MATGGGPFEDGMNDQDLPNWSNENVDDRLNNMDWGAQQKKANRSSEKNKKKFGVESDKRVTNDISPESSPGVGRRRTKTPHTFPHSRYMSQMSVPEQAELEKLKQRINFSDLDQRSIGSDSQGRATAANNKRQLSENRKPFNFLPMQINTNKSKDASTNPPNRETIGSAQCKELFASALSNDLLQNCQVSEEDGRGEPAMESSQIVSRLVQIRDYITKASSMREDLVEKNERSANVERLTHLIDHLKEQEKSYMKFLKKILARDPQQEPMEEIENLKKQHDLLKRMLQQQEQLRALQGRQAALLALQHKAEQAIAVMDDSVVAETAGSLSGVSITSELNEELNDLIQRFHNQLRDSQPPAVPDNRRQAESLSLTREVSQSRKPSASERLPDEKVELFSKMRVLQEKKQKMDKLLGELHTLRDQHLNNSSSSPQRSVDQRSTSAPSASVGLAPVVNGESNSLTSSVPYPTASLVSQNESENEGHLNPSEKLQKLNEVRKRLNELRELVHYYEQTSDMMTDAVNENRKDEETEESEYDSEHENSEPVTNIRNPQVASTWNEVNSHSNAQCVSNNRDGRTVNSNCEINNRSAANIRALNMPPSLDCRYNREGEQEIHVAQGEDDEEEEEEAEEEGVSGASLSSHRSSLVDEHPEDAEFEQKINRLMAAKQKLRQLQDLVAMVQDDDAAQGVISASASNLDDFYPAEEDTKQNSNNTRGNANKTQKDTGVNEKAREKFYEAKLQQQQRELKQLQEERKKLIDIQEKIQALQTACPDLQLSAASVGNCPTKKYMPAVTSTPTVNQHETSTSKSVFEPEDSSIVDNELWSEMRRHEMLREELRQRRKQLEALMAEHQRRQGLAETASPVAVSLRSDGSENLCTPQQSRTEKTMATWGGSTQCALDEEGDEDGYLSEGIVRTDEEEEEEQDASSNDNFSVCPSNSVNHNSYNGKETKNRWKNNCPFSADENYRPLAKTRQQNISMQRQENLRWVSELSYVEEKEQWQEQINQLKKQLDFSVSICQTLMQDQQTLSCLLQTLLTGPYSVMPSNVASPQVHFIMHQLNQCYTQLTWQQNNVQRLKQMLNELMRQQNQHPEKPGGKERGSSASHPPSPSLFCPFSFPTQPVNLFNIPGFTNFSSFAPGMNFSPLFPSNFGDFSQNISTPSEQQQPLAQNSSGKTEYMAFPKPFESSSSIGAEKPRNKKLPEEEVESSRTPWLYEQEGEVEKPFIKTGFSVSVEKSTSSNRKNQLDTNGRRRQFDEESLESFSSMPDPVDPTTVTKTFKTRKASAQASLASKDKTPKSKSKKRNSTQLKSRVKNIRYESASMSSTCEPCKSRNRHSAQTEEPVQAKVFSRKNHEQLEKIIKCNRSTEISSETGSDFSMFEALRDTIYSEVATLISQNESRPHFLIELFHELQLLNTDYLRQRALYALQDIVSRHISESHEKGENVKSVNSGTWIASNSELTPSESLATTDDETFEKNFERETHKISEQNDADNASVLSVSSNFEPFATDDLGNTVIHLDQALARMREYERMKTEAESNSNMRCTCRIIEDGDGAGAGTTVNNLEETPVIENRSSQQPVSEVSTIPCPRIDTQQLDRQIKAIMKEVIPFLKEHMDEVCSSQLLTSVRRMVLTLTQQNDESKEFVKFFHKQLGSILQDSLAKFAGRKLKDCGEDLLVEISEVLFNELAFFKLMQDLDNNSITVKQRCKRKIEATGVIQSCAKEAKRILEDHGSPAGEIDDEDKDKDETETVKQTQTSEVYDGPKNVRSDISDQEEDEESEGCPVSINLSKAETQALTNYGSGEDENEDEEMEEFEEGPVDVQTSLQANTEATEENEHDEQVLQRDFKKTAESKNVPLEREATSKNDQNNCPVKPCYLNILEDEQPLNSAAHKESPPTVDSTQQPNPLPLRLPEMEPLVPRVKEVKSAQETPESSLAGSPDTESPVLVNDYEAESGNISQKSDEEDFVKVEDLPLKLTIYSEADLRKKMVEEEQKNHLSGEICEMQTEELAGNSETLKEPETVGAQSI
UniProt O15534, whole entry, looked up: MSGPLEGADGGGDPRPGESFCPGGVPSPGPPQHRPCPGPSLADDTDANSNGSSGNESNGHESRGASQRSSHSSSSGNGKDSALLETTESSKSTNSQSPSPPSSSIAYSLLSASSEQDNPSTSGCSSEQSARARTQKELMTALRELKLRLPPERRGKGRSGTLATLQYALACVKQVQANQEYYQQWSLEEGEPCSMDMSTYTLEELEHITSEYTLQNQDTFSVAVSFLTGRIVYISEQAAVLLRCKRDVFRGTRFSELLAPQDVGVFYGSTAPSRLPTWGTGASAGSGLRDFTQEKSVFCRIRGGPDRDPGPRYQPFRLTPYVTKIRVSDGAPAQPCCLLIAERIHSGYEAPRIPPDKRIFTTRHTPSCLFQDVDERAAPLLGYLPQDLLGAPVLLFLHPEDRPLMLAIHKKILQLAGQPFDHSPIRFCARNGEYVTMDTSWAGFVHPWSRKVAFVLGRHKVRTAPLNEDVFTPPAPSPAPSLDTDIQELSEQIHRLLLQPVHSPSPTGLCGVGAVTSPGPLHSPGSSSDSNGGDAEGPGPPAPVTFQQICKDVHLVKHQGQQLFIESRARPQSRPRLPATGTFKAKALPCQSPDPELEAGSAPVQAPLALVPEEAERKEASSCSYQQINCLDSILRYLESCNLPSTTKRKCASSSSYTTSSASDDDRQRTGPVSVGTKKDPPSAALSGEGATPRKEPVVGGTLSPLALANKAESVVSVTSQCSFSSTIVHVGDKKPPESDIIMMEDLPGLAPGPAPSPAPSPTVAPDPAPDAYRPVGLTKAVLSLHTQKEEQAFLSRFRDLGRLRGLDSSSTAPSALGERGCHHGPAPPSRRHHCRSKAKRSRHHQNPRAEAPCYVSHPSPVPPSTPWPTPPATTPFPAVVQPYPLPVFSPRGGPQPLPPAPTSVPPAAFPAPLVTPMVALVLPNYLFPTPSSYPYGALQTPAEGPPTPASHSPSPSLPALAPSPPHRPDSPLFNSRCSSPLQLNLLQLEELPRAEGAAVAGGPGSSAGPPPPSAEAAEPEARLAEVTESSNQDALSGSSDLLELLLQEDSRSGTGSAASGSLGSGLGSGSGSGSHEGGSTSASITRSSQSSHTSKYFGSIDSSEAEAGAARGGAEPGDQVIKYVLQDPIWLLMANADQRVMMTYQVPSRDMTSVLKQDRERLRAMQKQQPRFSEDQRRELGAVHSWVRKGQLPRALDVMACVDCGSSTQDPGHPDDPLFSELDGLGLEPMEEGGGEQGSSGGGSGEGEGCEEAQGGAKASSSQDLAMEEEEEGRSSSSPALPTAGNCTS

Tests used:
Assay in all cases: log2 fold change, soluble protein after heating vs DMSO (PISA); higher = thermal stabilisation; K562 lysate, 10 uM; active = over 0.2 and 3.5 SD of the protein, either way, in both replicates (recomputed)
[1] = compound: Cc1nc(Nc2ncc(C(=O)Nc3c(C)cccc3Cl)s2)cc(N2CCN(CCO)CC2)n1 [dasatinib]
Outline: (§1)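 K562 pellets were dounce-homogenised in PBS pH 7.4 containing 1 mM MgCl2, and the crude extract, at 1 mg/mL protein, was exposed to 10 μM compound for 30 min. Aliquots were heated for 3 min across 48°C-58°C, pooled, brought to 0.5% NP-40 at 4°C and spun at 21,000xg for 90 min, with the supernatant taken as soluble protein. TMTpro 16plex LC-MS/MS with equalised channel sums quantified that protein. Values are log-two fold changes in thermal stability relative to solvent controls, taken from duplicates.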

[2] = compound: Cn1cc(-c2ccc3c(c2)CCN3C(=O)Cc2cccc(C(F)(F)F)c2)c2c(N)ncnc21
Outline: as §1

[3] = compound: Cn1cc(CNCC2CCN(c3ncc(C(=O)NO)cn3)CC2)c2ccccc21 [quisinostat]
Outline: as §1

[4] = compound: NC(=O)Nc1cc(-c2cccc(F)c2)sc1C(=O)N[C@H]1CCCNC1
Outline: as §1

[5] = compound: NC(=O)c1cnc(N[C@@H]2CCCC[C@@H]2N)nc1Nc1cccc(-n2nccn2)c1
Outline: as §1

[6] = compound: Cc1cn(-c2cc(NC(=O)c3ccc(C)c(Nc4nccc(-c5cccnc5)n4)c3)cc(C(F)(F)F)c2)cn1 [nilotinib]
Outline: as §1

[7] = compound: Cc1nc(Nc2n[nH]c3c2CN(C(=O)N[C@H](CN(C)C)c2ccccc2)C3(C)C)c2sccc2n1
Outline: as §1

[8] = compound: Cc1ncc(-c2ccnc(Nc3ccc(S(C)(=O)=O)cc3)n2)n1C(C)C
Outline: as §1

[9] = compound: Cn1cncc1[C@@](N)(c1ccc(Cl)cc1)c1ccc2c(c1)c(-c1cccc(Cl)c1)cc(=O)n2C [tipifarnib]
Outline: as §1

[10] = compound: NC1(c2ccc(-c3nc4ccn5c(=O)[nH]nc5c4cc3-c3ccccc3)cc2)CCC1
Outline: as §1

Measured: log2 fold change

PEX3 (UniProt P56589)
inactive: [1] 0.039 | [2] -0.13 | [3] -0.002 | [4] 0.026 | [5] 0.022

PDE3B (UniProt Q13370)
inactive: [1] 0.013 | [2] -0.095

PFN3 (UniProt P60673)
inactive: [6] -0.104 | [7] 0.001 | [8] 0.033 | [3] -0.349 | [9] -0.083 | [4] -0.044 | [5] -0.087

PDIK1L (UniProt Q8N165)
inactive: [1] -0.05 | [2] 0.118

PFKFB1 (UniProt P16118)
inactive: [1] -0.017 | [2] 0.004 | [5] 0.04 | [10] 0.017

PCK1 (UniProt P35558)
inactive: [5] 0.037

PCNX3 (UniProt Q9H6A9)
inactive: [1] -0.048 | [2] -0.043 | [3] 0.113 | [4] 0.048 | [5] -0.058

PDE12 (UniProt Q6L8Q7)
inactive: [6] 0.05 | [7] 0.006 | [1] -0.055 | [8] 0.078 | [2] 0.013 | [3] -0.003 | [9] -0.028 | [4] 0.018 | [5] 0.003 | [10] -0.014

PCGF1 (UniProt Q9BSM1)
inactive: [1] 0.023 | [2] 0.005 | [10] -0.311

PDIA4, A0A499FI48
inactive: [1] -0.004 | [2] 0.044 | [3] -0.02 | [4] 0.164

PDE4DIP (UniProt E9PS60)
inactive: [6] -0.074 | [7] 0.052 | [1] -0.158 | [8] -0.045 | [2] -0.073 | [3] -0.256 | [9] 0.081 | [4] -0.205 | [10] -0.025

PFDN5 (UniProt Q99471)
inactive: [6] 0.056 | [7] 0 | [1] 0.003 | [8] 0.096 | [2] -0.009 | [3] 0.055 | [9] 0.041 | [4] -0.059 | [5] -0.024 | [10] 0.004

PEX12 (UniProt O00623)
inactive: [5] -0.064

PDK1 (UniProt Q15118)
inactive: [1] 0.113 | [2] 0.153 | [3] 0.069 | [4] -0.013 | [5] 0.031 | [10] -0.237

PARPBP (UniProt Q9NWS1)
inactive: [6] -0.246 | [7] 0.269 | [1] 0 | [8] 0.104 | [2] -0.002 | [9] 0.117 | [10] -0.025

PDE8A (UniProt O60658)
inactive: [3] 0.104 | [4] -0.022 | [10] -0.142

PCLAF (UniProt Q15004)
inactive: [6] -0.115 | [7] 0.081 | [1] 0.001 | [8] 0.02 | [2] -0.087 | [3] -0.044 | [9] 0.018 | [4] -0.018 | [10] 0.094

PCGF3 isoform 2 (UniProt Q3KNV8)
inactive: [3] -0.046 | [4] 0.02 | [10] -0.147

PEX1 (UniProt O43933)
inactive: [3] -0.068 | [4] 0.082 | [5] -0.065

PBDC1 (UniProt Q9BVG4)
inactive: [6] 0.072 | [7] 0.008 | [1] 0.021 | [8] 0.019 | [2] 0 | [3] 0.043 | [9] 0.023 | [4] 0.013 | [5] 0.001 | [10] 0

2 records drawn at random from the list so far, as already listed:
PCGF3 isoform 2 (UniProt Q3KNV8)
inactive: [3] -0.046 | [4] 0.02 | [10] -0.147

PDE8A (UniProt O60658)
inactive: [3] 0.104 | [4] -0.022 | [10] -0.142

The results go on:

PCM1 isoform 5 (UniProt Q15154)
inactive: [3] -0.074 | [4] 0.087

PDP1 isoform 2 (UniProt Q9P0J1)
inactive: [1] 0.018 | [2] -0.028 | [10] -0.224

PEMT isoform 2 (UniProt Q9UBM1)
inactive: [5] -0.32

PFN1 (UniProt I3L3D5)
inactive: [6] -0.009 | [7] -0.088 | [8] 0.108 | [9] 0.006 | [5] 0.04

PEX7 (UniProt O00628)
inactive: [1] -0.12 | [2] -0.047 | [5] 0.031

PEF1 (UniProt Q9UBV8)
inactive: [6] 0.026 | [7] 0.013 | [1] 0.012 | [8] -0.015 | [2] -0.004 | [3] 0.08 | [9] 0.028 | [4] -0.018 | [5] 0.005 | [10] 0.011

PCBP2 (UniProt F8W0G4)
inactive: [6] 0.034 | [7] -0.092 | [1] -0.138 | [8] -0.154 | [2] 0 | [9] -0.298 | [10] 0.053

PDE4A (UniProt P27815)
inactive: [6] -0.277 | [7] -0.065 | [1] -0.005 | [8] 0.134 | [2] 0.198 | [3] -0.126 | [9] 0.027 | [4] 0.061 | [10] -0.116

PGD (UniProt K7EPF6)
inactive: [6] -0.119 | [7] 0.038 | [8] 0.237 | [3] -0.107 | [9] 0.129 | [4] 0.023 | [5] -0.157

PCBP2 (UniProt F8VRH0)
inactive: [6] -0.221 | [7] -0.532 | [8] -0.063 | [3] 0.034 | [9] -0.167 | [4] -0.059 | [5] 0.232 | [10] 0.003

PEAK1 (UniProt Q9H792)
inactive: [6] 0.005 | [7] -0.047 | [1] -0.014 | [8] 0.013 | [2] 0.079 | [3] 0.011 | [9] -0.116 | [4] 0.001 | [10] 0.115

PDCD2 (UniProt Q16342)
inactive: [6] 0.07 | [7] 0.065 | [1] -0.009 | [8] 0.071 | [2] 0.031 | [3] 0.001 | [9] -0.011 | [4] 0.027 | [5] 0.038 | [10] -0.025

PCMTD2 (UniProt Q9NV79)
inactive: [3] -0.08 | [4] 0.137 | [10] 0.115

PEX6 (UniProt Q13608)
inactive: [1] 0.062 | [2] 0.043 | [10] -0.09

PARP12 (UniProt Q9H0J9)
inactive: [1] -0.038 | [2] -0.021 | [3] -0.201 | [4] 0.102 | [5] 0.066 | [10] -0.204

PFKFB4 (UniProt Q16877)
inactive: [1] 0.009 | [2] -0.045 | [3] 0.059 | [4] -0.024 | [5] 0.015 | [10] 0.013

PARP9 (UniProt Q8IXQ6)
inactive: [1] 0.11 | [2] -0.21 | [3] -0.343 | [4] 0.096 | [5] 0.046 | [10] 0

PER1 (UniProt O15534)
inactive: [1] -0.038 | [2] 0.154 | [3] 0.096 | [4] -0.023
